Experimental data published in paper PMC9950529.

Sequences of proteins named here, by UniProt entry; tags and fusion partners are left off. A change or cut given only in a name is not applied to a line headed by its entry.
UniProt O54943: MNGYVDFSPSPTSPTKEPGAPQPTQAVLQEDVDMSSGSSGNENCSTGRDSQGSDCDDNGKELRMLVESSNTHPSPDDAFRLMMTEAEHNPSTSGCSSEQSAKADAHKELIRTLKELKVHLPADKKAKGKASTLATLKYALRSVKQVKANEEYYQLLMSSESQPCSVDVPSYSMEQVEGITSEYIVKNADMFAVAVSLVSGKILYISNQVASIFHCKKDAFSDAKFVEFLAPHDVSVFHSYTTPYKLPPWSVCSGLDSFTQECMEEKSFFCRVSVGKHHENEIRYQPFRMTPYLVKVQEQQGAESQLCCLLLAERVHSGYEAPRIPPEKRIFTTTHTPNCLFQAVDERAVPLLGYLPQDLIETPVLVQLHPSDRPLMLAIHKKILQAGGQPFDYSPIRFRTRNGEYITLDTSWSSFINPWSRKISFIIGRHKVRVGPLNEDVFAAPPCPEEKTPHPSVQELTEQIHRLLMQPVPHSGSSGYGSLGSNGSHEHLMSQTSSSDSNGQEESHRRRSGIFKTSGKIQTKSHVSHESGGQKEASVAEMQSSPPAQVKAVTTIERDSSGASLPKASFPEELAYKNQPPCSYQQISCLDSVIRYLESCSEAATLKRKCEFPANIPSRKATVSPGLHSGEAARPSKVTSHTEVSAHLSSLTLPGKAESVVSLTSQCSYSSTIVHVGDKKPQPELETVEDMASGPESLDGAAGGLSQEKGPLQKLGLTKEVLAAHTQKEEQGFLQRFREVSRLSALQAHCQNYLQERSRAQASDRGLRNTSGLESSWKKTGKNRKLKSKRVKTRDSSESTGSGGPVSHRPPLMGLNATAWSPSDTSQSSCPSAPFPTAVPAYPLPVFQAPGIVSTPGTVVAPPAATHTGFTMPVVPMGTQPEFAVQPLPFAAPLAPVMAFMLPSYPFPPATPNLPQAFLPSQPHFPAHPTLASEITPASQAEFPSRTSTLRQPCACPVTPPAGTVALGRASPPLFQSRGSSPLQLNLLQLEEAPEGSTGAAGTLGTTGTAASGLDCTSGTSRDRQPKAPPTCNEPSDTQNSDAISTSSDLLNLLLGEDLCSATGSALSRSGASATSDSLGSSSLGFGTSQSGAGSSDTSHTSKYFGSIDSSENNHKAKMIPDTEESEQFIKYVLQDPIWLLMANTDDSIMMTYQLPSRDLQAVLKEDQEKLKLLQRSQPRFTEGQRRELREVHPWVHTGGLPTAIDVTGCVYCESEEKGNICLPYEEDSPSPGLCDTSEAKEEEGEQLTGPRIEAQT
UniProt Q9DC28: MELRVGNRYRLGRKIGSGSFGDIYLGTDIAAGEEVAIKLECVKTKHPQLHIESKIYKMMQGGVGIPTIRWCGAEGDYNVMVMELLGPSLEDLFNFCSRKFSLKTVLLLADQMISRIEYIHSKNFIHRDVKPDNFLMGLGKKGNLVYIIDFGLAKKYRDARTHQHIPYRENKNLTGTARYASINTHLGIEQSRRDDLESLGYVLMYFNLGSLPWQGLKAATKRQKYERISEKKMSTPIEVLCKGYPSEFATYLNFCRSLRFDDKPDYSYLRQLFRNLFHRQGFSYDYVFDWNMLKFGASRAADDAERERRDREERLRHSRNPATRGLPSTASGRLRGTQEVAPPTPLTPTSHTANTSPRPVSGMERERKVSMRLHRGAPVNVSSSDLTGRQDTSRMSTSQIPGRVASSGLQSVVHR
UniProt Q9JMK2: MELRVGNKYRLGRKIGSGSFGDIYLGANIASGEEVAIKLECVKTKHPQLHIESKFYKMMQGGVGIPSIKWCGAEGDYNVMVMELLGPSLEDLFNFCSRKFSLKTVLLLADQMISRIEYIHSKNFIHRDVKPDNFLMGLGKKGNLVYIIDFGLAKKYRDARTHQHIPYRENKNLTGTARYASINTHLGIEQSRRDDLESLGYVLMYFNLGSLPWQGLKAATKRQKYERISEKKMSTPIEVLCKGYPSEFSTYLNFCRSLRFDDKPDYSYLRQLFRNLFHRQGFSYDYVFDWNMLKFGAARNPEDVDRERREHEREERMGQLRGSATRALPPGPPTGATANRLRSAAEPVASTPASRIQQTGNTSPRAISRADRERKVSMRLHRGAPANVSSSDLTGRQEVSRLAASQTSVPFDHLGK
UniProt O35973: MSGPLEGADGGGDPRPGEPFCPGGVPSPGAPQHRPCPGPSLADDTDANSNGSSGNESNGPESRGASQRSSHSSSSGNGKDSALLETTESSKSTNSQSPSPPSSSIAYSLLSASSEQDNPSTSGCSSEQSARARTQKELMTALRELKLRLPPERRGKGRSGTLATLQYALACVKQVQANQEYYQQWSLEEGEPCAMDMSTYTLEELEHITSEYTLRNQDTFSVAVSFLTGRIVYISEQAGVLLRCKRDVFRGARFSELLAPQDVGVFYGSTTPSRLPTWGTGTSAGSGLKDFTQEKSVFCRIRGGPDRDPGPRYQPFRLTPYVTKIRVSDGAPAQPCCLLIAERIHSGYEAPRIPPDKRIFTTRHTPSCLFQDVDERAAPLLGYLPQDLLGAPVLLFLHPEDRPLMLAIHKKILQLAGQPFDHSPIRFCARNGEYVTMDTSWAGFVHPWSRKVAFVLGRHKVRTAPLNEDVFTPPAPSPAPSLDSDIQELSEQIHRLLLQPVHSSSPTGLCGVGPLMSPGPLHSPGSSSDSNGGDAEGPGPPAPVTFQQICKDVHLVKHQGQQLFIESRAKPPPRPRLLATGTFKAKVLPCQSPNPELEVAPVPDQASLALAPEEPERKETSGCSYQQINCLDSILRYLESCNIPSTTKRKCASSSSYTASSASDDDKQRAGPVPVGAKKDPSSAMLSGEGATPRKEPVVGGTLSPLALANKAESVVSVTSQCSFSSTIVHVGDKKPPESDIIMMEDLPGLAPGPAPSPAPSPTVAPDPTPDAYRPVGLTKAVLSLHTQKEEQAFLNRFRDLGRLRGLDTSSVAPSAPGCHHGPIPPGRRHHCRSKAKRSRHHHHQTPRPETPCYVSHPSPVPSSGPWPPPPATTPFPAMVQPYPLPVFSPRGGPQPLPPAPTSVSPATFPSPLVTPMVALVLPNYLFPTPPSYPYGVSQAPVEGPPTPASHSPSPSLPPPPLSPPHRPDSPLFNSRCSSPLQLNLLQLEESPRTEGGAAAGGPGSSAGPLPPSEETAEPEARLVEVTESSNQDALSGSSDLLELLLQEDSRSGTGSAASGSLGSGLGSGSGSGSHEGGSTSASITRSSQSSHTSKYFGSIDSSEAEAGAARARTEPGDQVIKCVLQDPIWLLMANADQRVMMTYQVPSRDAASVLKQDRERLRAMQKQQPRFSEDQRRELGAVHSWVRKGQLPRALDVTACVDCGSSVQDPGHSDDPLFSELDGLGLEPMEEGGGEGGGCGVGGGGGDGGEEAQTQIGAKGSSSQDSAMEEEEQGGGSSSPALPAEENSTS

Columns and labels:
[1] = target: PER2 (mouse (endogenous in mouse liver)) (UniProt O54943); test: affinity purification with mass spectrometry; anti-PER2 on Dynabeads protein G, mouse liver nuclear extract of ZT19 at 150 mM KCl after high-speed centrifugation, overnight, eluted by boiling in SDS sample buffer, LC-MS/MS; negative controls immunoglobulin and Per1/2-/- extract
[2] = target: T1, CRY1 (mouse (endogenous in mouse liver)) (UniProt P97784); test: affinity purification with mass spectrometry; anti-CRY1 (IgM) on protein L magnetic beads, mouse liver nuclear extracts of ZT0, ZT12, ZT19 at 150 mM KCl after high-speed centrifugation, overnight, eluted with CRY1 peptide, LC-MS/MS; negative controls IgM and Cry1/2-/- extract
T1 sequence: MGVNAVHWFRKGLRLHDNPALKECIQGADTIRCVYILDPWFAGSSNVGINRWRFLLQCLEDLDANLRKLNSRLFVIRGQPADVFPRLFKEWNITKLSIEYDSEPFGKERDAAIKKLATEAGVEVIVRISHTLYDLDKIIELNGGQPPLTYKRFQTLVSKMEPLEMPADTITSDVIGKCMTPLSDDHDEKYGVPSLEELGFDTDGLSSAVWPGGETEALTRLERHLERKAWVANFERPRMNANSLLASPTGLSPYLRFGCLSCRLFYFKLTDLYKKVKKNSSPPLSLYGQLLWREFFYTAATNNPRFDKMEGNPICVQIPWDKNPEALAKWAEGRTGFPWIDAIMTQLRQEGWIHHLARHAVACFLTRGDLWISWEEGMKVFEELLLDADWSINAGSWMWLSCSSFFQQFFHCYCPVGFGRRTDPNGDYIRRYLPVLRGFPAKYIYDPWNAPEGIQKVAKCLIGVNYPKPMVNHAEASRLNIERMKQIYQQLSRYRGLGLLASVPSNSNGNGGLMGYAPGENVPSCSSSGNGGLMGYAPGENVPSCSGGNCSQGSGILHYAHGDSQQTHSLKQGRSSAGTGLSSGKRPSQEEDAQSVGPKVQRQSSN

binding [1]: binds | binding [2]: binds
Molecule: CK1δ (from UniProt Q9DC28 1-415) (enzyme)

binding [1]: binds
Molecule: CK1ε (from UniProt Q9JMK2 1-416) (enzyme)

binding [1]: binds
Molecule: PER1 (from UniProt O35973 1-1291)

binding [1]: binds
B1: PER3 (protein, UniProt O70361 1-1113)
chain: MDPCGDPAVPGGDCPQTRGPGLQGASGQEGPLQGTCVDSSHSEHEDRNRMSEELIMVVQEMKKYFPAERHTKPSTLDALNYALRCVHSVQANSDFFQSLGPRGAHQADVTVYSLEDLTALASEHTSKNTDTFAAVFSFLSGRLVHISEQAALILNSKRGFLKSVHFVDLLAPQDVRAFYAHTAPTQLPFWNNWTQRASQYECAPAKPFFCRICGGGDREKRHYSPFRILPYLVHVHSSAQPEPEPCCLTLVEKIHSGYEAPRIPVDKRIFTTTHTPGCVFLEVDERAVPLLGYLPQDLIGTSILTYLHPEDRPLMVAIHQKVLKYAGHPPFEHSPVRFCTQNGEYVILDSSWSSFVNPWSRKVSFIIGRHKVRTSPLNEDVFATRIKKAASNDKDIAELQEQIHKLLLQPVHASASSGYGSLGSSGSQEQHVSITSSSESSGHCPEEGQHEQMTLQQVYASVNKIKNVGQQLYIESMARSSVKPVAETCVEPQGGDEQKDFSSSQTLKNKSTTDTGSGGNLQQEQPSSSYQQMNCIDSVIRYLTSYSLPALKRKCISCTNTSSSSEEAKPIPEVDSSQRDTEQLLDIRKQETTGPSTDIEGGAARTLSTAALSVASGISQCSCSSTSGHAPPLQSESVAVACKPWALRTKASHLAAGGFKHVGLTAAVLSAHTQKEEQNYVDRFREKILTSPYGCYLQQESRNRAQYSCVQAGSTAKHSRCAGSERQKHKRKKLPAPVDTSSPGAHLCPHVTGLLPDEQHWGPSASPSPLGAGLAFPSALVVPSQTPYLLPSFPLQDMASQGVGVSAAWGAAAGCPPLSAGPQAVAAFPSAYVDTLMTIFLHNAPLFPLWPPSFSPYPSLGAAGSSELAPLVPAMAPNPEPTTSGHSQRRVEENWEAHSEELPFISSRSSSPLQLNLLQEEMPAPSESADAVRRGAGPDAKHHCVTGPSGSRSRHCTSGELATATAQQESAAASGSSASSIYFSSTDYASEVSENRQRPQDRQRDEALPGAAEESIWRMIERTPECVLMTYQVPERGREEVLKQDLEKLQSMEQQQPLFSPAQREELAKVRSWIHSHTAPQEGHLQSCVACEDRGSVGDTAEVLEQHPAEDTS

Results are given in words; binding and its absence hold for the method and conditions named. Binding seen in cells or lysates may run through a third protein. A yes stands for co-enrichment or nearness to the bait. Other partners may have been found. One block for each molecule: values may come before it.
